Legend:
[1] = UPLC analysis of crude VKDNYI peptides directly after synthesis (deletion sequences); settings: crude peptides directly after the synthesis, limit of detection
[2] = HPLC analysis of crude VKDRYI peptides directly after synthesis (deletion sequences); settings: crude peptides directly after the synthesis, limit of detection

SMILES | Asp deletion and deletions of a preceding amino acid [1] | Asp deletion and deletions of a preceding amino acid [2]
CCC(C)(CC)OC(=O)C[C@H](NC(=O)OCC1c2ccccc2-c2ccccc21)C(=O)O [Mpe, Fmoc-Asp(OMpe)-OH, reference compound] | no Asp deletion and no deletions of a proceding amino acid are detected | no Asp deletion and no deletions of a proceeding amino acid are detected
CCCCC(CCCC)(CCCC)OC(=O)C[C@H](NC(=O)OCC1c2ccccc2-c2ccccc21)C(=O)O [Bno] | no Asp deletion and no deletions of a proceding amino acid are detected | no Asp deletion and no deletions of a proceeding amino acid are detected
